These are yes or no findings as the source states them, for the method shown. Binding seen in cells or lysates may run through a third protein. Some results given as binding are weak or reduced against the parent protein; the word gives no strength.
Experiments:
[1] = biological target: T1, murine integrin α4β1 (wildtype) of CD11b+ myeloid cells (mouse) (UniProt Q00651+P09055); assay: co-immunoprecipitation of integrin α4, immunoblot (FIG. 38a-c)
[2] = biological target: T1, murine integrin α4β1 (wildtype) of CD11b+ myeloid cells (mouse); assay: co-immunoprecipitation with anti-α4β1 (PS/2), immunoblot (FIG. 3d)

Sequences of proteins named here, by UniProt entry; tags and fusion partners are left off. A change or cut given only in a name is not applied to a line headed by its entry.
UniProt Q00651: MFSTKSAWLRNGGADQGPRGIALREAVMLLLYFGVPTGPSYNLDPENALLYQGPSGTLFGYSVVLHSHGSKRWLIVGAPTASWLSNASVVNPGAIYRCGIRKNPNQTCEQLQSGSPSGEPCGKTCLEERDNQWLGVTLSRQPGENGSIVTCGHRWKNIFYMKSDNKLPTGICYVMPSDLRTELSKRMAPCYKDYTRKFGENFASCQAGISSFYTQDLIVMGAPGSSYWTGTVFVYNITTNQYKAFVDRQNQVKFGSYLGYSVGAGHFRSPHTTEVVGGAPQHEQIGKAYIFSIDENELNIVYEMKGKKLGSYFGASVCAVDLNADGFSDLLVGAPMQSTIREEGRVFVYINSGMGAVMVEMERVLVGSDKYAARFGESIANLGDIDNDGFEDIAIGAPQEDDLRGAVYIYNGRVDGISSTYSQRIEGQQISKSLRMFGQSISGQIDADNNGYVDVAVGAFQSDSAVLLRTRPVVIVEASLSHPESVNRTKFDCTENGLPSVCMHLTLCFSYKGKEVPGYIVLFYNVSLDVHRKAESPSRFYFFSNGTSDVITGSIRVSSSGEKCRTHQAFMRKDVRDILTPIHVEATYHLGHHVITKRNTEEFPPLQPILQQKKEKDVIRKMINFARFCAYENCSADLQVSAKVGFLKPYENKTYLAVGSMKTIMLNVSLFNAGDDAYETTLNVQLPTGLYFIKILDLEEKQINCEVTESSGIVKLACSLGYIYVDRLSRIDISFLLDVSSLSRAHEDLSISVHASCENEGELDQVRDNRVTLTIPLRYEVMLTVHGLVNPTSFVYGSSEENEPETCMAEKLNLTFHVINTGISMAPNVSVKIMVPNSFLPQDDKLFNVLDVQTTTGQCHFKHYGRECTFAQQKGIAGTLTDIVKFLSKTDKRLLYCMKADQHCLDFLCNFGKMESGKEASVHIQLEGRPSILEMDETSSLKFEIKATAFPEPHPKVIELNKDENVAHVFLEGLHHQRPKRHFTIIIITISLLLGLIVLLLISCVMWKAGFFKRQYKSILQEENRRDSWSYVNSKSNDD
UniProt P09055: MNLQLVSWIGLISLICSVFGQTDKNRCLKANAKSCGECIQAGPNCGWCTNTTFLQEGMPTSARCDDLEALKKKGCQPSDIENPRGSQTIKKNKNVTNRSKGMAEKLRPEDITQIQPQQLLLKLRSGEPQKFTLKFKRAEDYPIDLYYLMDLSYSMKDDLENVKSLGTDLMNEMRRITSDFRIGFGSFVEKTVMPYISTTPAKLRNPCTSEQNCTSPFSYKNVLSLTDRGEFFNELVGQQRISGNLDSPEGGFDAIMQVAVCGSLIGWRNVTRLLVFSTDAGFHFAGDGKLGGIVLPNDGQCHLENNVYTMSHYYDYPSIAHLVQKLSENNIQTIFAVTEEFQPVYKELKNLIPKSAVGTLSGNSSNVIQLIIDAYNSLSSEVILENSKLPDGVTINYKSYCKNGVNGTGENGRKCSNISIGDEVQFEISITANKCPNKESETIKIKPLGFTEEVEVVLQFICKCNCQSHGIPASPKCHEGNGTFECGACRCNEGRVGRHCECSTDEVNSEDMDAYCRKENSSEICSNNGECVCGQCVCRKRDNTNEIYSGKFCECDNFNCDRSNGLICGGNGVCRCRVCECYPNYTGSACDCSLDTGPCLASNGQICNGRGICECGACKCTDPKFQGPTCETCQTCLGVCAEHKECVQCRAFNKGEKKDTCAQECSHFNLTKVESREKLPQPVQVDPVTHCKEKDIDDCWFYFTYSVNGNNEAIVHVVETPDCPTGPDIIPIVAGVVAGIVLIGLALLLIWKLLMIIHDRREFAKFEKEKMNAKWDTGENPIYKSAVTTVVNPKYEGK
UniProt P26039: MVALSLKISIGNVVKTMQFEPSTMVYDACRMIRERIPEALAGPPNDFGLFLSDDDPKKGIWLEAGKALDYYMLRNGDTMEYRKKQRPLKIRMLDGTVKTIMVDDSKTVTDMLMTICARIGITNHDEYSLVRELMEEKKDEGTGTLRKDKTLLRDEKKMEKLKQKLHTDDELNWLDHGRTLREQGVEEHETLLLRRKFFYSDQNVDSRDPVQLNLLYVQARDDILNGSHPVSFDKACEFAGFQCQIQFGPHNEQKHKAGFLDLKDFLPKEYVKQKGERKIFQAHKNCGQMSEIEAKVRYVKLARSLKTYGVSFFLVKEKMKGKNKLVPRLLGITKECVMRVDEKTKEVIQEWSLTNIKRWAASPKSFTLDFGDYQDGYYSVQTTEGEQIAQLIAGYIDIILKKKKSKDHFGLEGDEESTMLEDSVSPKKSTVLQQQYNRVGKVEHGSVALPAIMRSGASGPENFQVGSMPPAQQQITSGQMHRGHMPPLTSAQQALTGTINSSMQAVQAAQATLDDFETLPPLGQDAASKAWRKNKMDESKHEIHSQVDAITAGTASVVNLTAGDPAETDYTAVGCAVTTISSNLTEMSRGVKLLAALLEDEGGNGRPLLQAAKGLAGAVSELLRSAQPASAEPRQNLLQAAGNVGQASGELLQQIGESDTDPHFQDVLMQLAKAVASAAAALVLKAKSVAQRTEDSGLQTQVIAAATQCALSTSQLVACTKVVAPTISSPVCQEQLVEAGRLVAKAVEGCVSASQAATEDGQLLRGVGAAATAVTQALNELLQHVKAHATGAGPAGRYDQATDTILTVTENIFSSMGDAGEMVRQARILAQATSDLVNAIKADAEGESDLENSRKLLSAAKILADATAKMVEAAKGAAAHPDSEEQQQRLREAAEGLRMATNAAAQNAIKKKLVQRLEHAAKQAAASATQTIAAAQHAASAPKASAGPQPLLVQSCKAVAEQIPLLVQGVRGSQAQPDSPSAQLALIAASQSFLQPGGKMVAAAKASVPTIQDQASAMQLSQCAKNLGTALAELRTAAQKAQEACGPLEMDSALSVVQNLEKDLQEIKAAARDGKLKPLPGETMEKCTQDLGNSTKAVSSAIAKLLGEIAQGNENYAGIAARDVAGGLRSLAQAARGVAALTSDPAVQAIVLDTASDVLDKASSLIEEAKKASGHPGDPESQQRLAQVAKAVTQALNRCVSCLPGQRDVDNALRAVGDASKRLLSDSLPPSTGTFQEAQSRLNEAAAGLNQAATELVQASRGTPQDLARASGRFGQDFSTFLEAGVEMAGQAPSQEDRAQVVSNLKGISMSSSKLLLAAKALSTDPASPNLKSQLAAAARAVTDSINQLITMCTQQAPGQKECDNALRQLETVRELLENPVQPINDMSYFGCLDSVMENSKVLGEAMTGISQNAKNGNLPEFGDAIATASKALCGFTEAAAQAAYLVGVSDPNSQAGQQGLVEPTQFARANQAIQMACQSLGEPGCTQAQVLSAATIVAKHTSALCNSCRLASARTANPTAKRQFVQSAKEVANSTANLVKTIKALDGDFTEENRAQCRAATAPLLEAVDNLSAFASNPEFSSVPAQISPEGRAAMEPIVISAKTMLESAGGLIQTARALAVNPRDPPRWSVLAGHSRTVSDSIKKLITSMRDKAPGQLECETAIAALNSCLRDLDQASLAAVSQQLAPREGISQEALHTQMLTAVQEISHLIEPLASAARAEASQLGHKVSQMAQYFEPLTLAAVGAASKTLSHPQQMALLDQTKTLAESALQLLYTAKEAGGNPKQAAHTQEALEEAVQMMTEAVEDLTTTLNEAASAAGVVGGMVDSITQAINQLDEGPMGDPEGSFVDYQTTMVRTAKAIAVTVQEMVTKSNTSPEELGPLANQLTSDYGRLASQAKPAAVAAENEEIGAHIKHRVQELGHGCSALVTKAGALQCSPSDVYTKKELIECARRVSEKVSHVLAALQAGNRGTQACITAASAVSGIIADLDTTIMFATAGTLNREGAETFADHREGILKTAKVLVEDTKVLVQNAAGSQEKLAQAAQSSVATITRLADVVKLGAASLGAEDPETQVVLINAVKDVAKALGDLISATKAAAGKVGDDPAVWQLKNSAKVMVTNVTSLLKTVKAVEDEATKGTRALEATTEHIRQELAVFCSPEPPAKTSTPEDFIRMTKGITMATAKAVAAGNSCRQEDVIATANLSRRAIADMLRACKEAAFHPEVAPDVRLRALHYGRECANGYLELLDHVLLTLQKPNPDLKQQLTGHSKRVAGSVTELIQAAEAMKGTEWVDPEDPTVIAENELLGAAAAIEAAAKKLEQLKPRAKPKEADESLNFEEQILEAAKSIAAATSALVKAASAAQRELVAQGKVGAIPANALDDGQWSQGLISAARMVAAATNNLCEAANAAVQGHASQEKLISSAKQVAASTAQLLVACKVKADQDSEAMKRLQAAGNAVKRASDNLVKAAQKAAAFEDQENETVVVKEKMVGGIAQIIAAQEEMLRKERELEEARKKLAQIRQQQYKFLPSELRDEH
UniProt Q8VI36: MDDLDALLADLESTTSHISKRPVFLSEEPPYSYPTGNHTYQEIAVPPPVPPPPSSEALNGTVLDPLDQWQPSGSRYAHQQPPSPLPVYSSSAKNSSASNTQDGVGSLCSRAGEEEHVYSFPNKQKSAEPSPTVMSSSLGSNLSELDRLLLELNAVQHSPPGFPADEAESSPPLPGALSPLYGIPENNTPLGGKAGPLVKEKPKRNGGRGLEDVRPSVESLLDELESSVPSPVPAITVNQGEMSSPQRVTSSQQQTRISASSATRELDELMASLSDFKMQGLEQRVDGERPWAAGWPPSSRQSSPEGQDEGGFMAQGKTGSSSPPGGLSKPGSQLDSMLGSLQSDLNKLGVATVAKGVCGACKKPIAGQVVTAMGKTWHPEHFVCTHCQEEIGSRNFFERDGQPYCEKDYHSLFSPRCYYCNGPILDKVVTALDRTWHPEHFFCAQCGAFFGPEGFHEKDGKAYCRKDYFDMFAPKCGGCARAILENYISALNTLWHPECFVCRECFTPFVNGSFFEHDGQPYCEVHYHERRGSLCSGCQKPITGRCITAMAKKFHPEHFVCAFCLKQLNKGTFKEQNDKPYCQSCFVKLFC

Substance	binding [1]	binding [2]
talin (murine, endogenous in bone marrow derived myeloid cells) (from UniProt P26039 1-2541)	binds	binds
paxillin (murine, endogenous in bone marrow derived myeloid cells) (from UniProt Q8VI36 1-591)	binds	binds

Source: patent publication US20100278837A1, “Compositions And Methods For Reducing Cancer And Inflammation” (The Regents of the University of California, priority 2009, published 2010)
